Measurements reported in PubChem BioAssay AID686938 (Drosophila RNAi Screening Center, 2013)
In all, the deposit lists about 23,000 reagents; shown is a random part of those with a known target gene and a result. Of all reagents, 75 (0.33%) got an active call. 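Raw plate signals without normalisation; calls rest on plate z-scores that were not deposited; ratio present for only 364 wells.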 Reagents against one gene are numbered here. Names joined by + are all predicted targets of the reagent. The record does not give: the dose of the treatment.

- Screen: 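Fly genes required for calcium entry once internal stores are emptied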 (primary screen)
- Cells: Drosophila S2R+ cells
- Reagents: long dsRNA against Drosophila genes, about 0.25 µg dsRNA per well, roughly 10,000 cells
- Duration: 5 days of knock-down before the calcium assay
- Treatment: thapsigargin (SERCA pump blocker) to empty calcium stores; entry signal taken 4 min after adding it
- Measurement: 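Duplicate raw fluo-4 intensities per well from a plate reader, at rest and four minutes after thapsigargin emptied calcium stores; entry-to-rest ratio filled for only some wells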
- Reading the numbers: calcium entry signal: higher = stronger calcium signal after store depletion; resting calcium signal: higher = higher resting calcium signal
- Active means: 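Called when the plate z-score of the entry-to-rest ratio, mean of duplicates, falls below −3; wells with low overall dye signal (Fmax z below −2) or more than five off-targets excluded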
- Calls: active = strongly reduced calcium entry; inactive = no strong reduction

| target gene | reagent | calcium entry signal, replicate 1 (fluorescence units) | calcium entry signal, replicate 2 (fluorescence units) | resting calcium signal, replicate 1 (fluorescence units) | resting calcium signal, replicate 2 (fluorescence units) | outcome |
| --- | --- | --- | --- | --- | --- | --- |
| 18w | 1 | 3.13e7 | 2.68e7 | 1.44e7 | 1.42e7 | inactive |
| mRpL51 | 1 | 5.68e7 | – | 2.36e7 | – | inactive |
| CG3732 | 1 | 3.43e7 | – | 1.63e7 | – | inactive |
| for | 1 | 2.11e7 | 2.42e7 | 1.23e7 | 1.21e7 | inactive |
| for | 2 | 5.81e7 | – | 2.79e7 | – | inactive |
| PolD1 | 1 | 4.05e7 | 4.22e7 | 2.04e7 | 1.90e7 | inactive |
| amrt | 1 | 1.65e7 | 1.96e7 | 1.00e7 | 1.05e7 | inactive |
| CG7017 | 1 | 2.24e7 | 3.56e7 | 1.18e7 | 1.57e7 | inactive |
| kuk | 1 | 4.33e7 | 3.69e7 | 2.04e7 | 1.75e7 | inactive |
| sas | 1 | 4.39e7 | 3.78e7 | 2.12e7 | 1.67e7 | inactive |
| CG13869 + CG11099 | 1 | 5.60e7 | 6.57e7 | 2.64e7 | 3.03e7 | inactive |
| Gp150 | 1 | 4.56e7 | 3.84e7 | 2.20e7 | 1.77e7 | inactive |
| Gr9a | 1 | 3.97e7 | 3.08e7 | 2.21e7 | 1.56e7 | inactive |
| Upf2 | 1 | 3.09e7 | 3.79e7 | 1.35e7 | 1.92e7 | inactive |
| CG12576 | 1 | 4.33e7 | 5.00e7 | 1.93e7 | 1.92e7 | inactive |
| Lis-1 | 1 | 4.30e7 | 3.71e7 | 1.89e7 | 1.78e7 | inactive |
| nero | 1 | 2.16e7 | 3.07e7 | 1.36e7 | 1.53e7 | inactive |
| ouib | 1 | 4.89e7 | 3.06e7 | 2.50e7 | 1.56e7 | inactive |
| CG8067 | 1 | 3.64e7 | 3.99e7 | 1.57e7 | 1.92e7 | inactive |
| hll | 1 | 4.95e7 | – | 2.39e7 | – | inactive |
| CG7656 | 1 | 4.04e7 | 4.80e7 | 1.84e7 | 3.04e7 | inactive |
| mamo | 1 | 1.49e7 | 2.23e7 | 9.72e6 | 1.34e7 | inactive |
| mamo | 2 | 2.92e7 | 2.30e7 | 1.59e7 | 1.10e7 | inactive |
| mamo | 3 | 2.72e7 | 2.79e7 | 1.50e7 | 1.36e7 | inactive |
| mamo | 4 | 3.26e7 | 2.83e7 | 1.64e7 | 1.41e7 | inactive |
| mamo | 5 | 2.83e7 | 3.59e7 | 1.58e7 | 1.69e7 | inactive |
| mamo | 6 | 3.11e7 | 3.17e7 | 1.50e7 | 1.63e7 | inactive |

In a second layout: results already given
{"target gene":"CG12576","reagent":1,"calcium entry signal, replicate 1 (fluorescence units)":4.33e7,"calcium entry signal, replicate 2 (fluorescence units)":5.00e7,"resting calcium signal, replicate 1 (fluorescence units)":1.93e7,"resting calcium signal, replicate 2 (fluorescence units)":1.92e7,"outcome":"inactive"}
{"target gene":"Lis-1","reagent":1,"calcium entry signal, replicate 1 (fluorescence units)":4.30e7,"calcium entry signal, replicate 2 (fluorescence units)":3.71e7,"resting calcium signal, replicate 1 (fluorescence units)":1.89e7,"resting calcium signal, replicate 2 (fluorescence units)":1.78e7,"outcome":"inactive"}
